Literature values, collected in US8106048B2, “Heterocyclic NF-κB inhibitors” (4SC AG, priority 2004, dated 2012).
At least one structure is not confirmed: it was looked up by name or label, or the drawing left a doubt.

What was measured:
[1] = test system: IκB; conditions: cited from earlier work
[2] = test system: NF-κB; conditions: cited from earlier work

**Q.** For `O=C(c1cccnc1)c1cc(Cl)cc2c1[nH]c1cnccc12` [compound 10], which “TNFα-induced IκB phosphorylation and degradation” value ([1]; HeLa cells) is on record?
**A.** The value was “blocked TNFα-induced IκB phosphorylation and degradation in HeLa cells”.

**Q.** What about the IC50 ([1]; WO 2001068648) of the same compound?
**A.** The IC50 was 0.15 µM.

**Q.** Which NF-κB inhibition ([2]; at a concentration of 1 μM) does the source give for `CC1(C(=O)O)N=C(c2ccccc2)N(Cc2ccccc2)C1c1ccncc1` (stereo not shown) [compound 11] here?
**A.** Its NF-κB inhibition is 88%.

**Q.** And the IC50 ([2]; read-out: IC50, NF-κB inhibition)?
**A.** Its IC50 is 0.3 µM.
